“Also recorded” adds a separate entry of the source.
Assays:
U87 glioblastoma cells = assay: Intracellular localization of DOX-derived fluorescence; assay type: cell-based, human; conditions: DOX 20 μM 2 h, CON1 and CON2 2, 5, 10 μM 72 h
U87 cells = assay: Transmission electron microscopy of cell import; assay type: cell-based, human; conditions: 5 μM, 24 h

| Molecule | localization of DOX-derived fluorescence (U87 glioblastoma cells) | cellular import (TEM) (U87 cells) |
| --- | --- | --- |
| COc1cccc2c1C(=O)c1c(O)c3c(c(O)c1C2=O)C[C@@](O)(C(=O)CO)C[C@@H]3O[C@H]1C[C@H](N)[C@H](O)[C@H](C)O1 [DOX, doxorubicin] | inside the nucleus; also recorded: fluorescence in the nucleus |  |
| N1-((2S,3S,4S,6R)-3-hydroxy-2-methyl-6-(((1S,3S)-3,5,12-trihydroxy-3-(2-hydroxyacetyl)-10-methoxy-6,11-dioxo-1,2,3,4,6,11-hexahydrotetracen-1-yl)oxy)tetrahydro-2H-pyran-4-yl)-N4-(6-((4-((R,E)-3-hydroxy-5-((1R,2R,4aS,8aS)-2-hydroxy-2,5,5,8a-tetramethyldecahydronaphthalen-1-yl)-3-methylpent-1-en-1-yl)benzyl)amino)hexyl) succinamide [CON2] | near the nuclear membrane; also recorded: perinuclear fluorescence | can penetrate the cancer cells; also recorded: found to enter into the U87 cells |
| N1-((25,3S,4S,6R)-3-hydroxy-2-methyl-6-(((1S,3S)-3,5,12-trihydroxy-3-(2-hydroxyacetyl)-10-methoxy-6,11-dioxo-1,2,3,4,6,11-hexahydrotetracen-1-yl)oxy)tetrahydro-2H-pyran-4-yl)-N4-(3-((4-((R,E)-3-hydroxy-5-((1R,2R,4aS,8aS)-2-hydroxy-2,5,5,8a-tetramethyldecahydronaphthalen-1-yl)-3-methylpent-1-en-1-yl)benzyl)amino)propyl) succinamide [CON1] | near the nuclear membrane; also recorded: perinuclear fluorescence | can penetrate the cancer cells; also recorded: found to enter into the U87 cells |

Reference: patent publication US20260174860A1, “HYBRID COMPOUNDS OF SCLAREOL AND DOXORUBICIN, THEIR SYNTHESIS AND APPLICATION” (INSTITUTE FOR BIOLOGICAL RESEARCH "SINISA STANKOVIC" - …, priority 2023, published 2026)
